The values that follow come from article PMC11727331.

Amino acid sequences for entries named in this document (tags omitted).
UniProt P08047: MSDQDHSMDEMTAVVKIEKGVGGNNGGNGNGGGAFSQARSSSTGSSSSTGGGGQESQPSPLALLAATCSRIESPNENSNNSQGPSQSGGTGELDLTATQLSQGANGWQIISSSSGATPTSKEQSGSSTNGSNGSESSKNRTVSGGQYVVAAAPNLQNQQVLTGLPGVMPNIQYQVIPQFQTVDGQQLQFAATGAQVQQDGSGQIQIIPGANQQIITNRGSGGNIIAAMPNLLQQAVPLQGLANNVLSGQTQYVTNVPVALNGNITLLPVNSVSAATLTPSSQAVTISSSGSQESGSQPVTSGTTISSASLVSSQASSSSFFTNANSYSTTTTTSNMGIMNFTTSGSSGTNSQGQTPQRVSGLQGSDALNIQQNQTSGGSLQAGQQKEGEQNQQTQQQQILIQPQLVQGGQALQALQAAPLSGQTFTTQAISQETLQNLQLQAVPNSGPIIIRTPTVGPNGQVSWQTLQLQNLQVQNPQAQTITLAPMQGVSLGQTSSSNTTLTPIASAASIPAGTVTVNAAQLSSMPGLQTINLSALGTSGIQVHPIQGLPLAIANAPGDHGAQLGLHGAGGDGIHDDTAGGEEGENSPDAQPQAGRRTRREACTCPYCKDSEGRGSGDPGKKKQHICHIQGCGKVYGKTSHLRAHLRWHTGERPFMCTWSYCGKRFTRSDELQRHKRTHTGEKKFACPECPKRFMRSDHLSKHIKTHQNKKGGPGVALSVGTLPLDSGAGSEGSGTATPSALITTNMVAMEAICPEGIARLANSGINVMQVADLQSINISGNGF
UniProt Q9UBN7: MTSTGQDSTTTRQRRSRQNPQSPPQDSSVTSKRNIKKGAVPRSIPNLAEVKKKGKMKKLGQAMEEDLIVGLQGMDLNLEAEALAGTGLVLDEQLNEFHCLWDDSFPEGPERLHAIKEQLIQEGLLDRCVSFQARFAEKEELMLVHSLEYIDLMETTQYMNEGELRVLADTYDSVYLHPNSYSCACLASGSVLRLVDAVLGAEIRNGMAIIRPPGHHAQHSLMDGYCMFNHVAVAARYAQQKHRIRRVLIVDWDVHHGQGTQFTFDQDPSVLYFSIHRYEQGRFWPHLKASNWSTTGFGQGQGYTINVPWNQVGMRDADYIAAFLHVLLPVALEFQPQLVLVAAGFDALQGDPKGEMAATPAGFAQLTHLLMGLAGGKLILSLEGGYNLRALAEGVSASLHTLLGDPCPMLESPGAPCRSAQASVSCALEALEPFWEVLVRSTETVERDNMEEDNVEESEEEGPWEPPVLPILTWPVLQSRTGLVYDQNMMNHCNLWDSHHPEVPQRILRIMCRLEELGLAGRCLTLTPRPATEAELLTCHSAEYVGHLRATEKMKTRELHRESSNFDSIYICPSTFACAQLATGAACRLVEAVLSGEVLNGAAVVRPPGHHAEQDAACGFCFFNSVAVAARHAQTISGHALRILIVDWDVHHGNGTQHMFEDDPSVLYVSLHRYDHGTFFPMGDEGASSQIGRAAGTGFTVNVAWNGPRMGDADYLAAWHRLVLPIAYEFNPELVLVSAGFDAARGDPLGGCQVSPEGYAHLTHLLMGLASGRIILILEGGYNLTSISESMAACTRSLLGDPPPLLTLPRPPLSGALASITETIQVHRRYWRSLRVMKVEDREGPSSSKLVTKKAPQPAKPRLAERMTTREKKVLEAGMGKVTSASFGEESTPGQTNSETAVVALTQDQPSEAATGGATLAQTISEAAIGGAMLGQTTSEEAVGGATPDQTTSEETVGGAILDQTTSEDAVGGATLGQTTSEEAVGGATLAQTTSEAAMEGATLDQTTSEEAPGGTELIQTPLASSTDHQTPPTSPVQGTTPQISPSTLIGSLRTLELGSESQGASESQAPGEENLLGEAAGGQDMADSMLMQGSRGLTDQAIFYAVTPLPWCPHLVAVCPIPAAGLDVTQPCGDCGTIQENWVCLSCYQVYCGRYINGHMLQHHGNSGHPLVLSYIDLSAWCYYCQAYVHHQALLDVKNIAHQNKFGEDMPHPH

These are yes or no findings as the source states them, for the method shown. In cells and extracts the contact can be indirect. Some results given as binding are weak or reduced against the parent protein; the word gives no strength.

The target of the assay is SP1 (human (endogenous in FaDu and HK-1)) (UniProt P08047). In words: co-IP; 800 ug lysate of FaDu and HK-1 cells (50 mM Tris pH 7.6, 150 mM NaCl, 0.5% Triton-X100, 0.1% Nonidet P-40) incubated with 5 ug anti-SP1 or normal rabbit IgG overnight at 4 C, Dynabeads Protein G, immunoblot. Background: Immunoblotting shows a protein as a band on a membrane.

Consider “HDAC6 (from UniProt Q9UBN7 1-1215) (enzyme)”, for which the binding result is “binds”.
